PubChem BioAssay AID1259308 | NCATS, 2017
In all, the deposit lists about 59,000 reagents; shown is a part drawn at random. Of all reagents, about 1,510 (2.6%) were called active. 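Calls use total luciferase alone and ignore viability, so some active siRNAs may act by altering cell number.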 A number with no mark means an inactive call.

Test: 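Candidate targets for better recombinant protein yield in mammalian cells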 (primary screen)
Cells: human HEK293 embryonic kidney cells stably expressing firefly luciferase (HEK-CMV-Luc2-Hygro)
Reagent: single siRNA against human genes, 0.8 pmol siRNA per well
Duration: 72 h
Read-out: 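Luciferase light (ONE-Glo) measured on one replicate plate set and viability (CellTiter-Glo) on the other, scaled to a negative control siRNA, with robust z-scores and luciferase per cell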
Direction: total luciferase, z-score and total luciferase, % of control: higher = more reporter protein produced; luciferase per cell, z-score: higher = more reporter output per viable cell; viable cells, % of control: higher = more viable cells
Hit rule: 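Active when the median/MAD z-score for overall luciferase is greater than 3; a gene was taken forward for validation with new siRNAs if at least two of its three siRNAs passed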
Calls: active = raised luciferase; inactive = no rise

gene knocked down,PubChem SID,"total luciferase, z-score","total luciferase, % of control","luciferase per cell, z-score","viable cells, % of control"
IGFBP4,SID160775636,0.76,97,0.948,84.5
IGFBP4,SID160775637,2.01,122,1.28,97.1
IGFBP4,SID160775638,-0.27,76.5,-1.12,115
OSCAR,SID160756379,-0.367,74.6,-1.01,109
OSCAR,SID160756380,0.368,89.2,0.344,91
OSCAR,SID160756381,-0.725,67.5,-0.664,89.8
SLC35E3,SID160733607,-0.437,73.2,-0.311,88.8
SLC35E3,SID160743732,1.19,105,0.53,102
SLC35E3,SID160743733,-0.0817,80.3,-0.621,106
ARHGAP33,SID160755249,0.906,99.9,0.407,100
ARHGAP33,SID160755250,0.238,86.6,-0.321,105
ARHGAP33,SID160755251,1.97,121,1.51,91.1
APLP1,SID160718550,-0.415,73.6,-0.298,89
APLP1,SID160718559,-0.0558,80.8,-0.22,95.6
APLP1,SID160718569,1.35,109,1.34,85.3
P2RY4,SID160778504,-0.601,69.9,0.404,70.3
P2RY4,SID160778505,0.593,93.7,0.299,96.8
P2RY4,SID160778507,-0.749,67,-0.914,95.2
ZC3H11D,SID160759777,3.63 (active),154,2.51,89
ZC3H11D,SID160759778,1.93,120,1.31,95.2
ZC3H11D,SID160759779,-0.00476,81.8,-0.699,110
LPAR4,SID160773403,0.146,84.8,0.0458,93.6
LPAR4,SID160773413,0.436,90.6,-0.0903,104
LPAR4,SID160773424,-1.84,45.3,-1.33,71.9
SCD5,SID160749867,-1.17,58.7,-1.08,87.2
SCD5,SID160749868,-0.989,62.2,-0.812,86.1
SCD5,SID160749869,-0.96,62.8,-1,91.3
FMO2,SID160766702,0.986,101,0.999,87.2
FMO2,SID160766712,-0.562,70.7,-0.687,94.7
FMO2,SID160766722,1.54,113,1.05,95.3
DRAM1,SID160743562,1.55,113,1.57,83.1
DRAM1,SID160743563,1.2,106,0.367,107
DRAM1,SID160743564,-1.09,60.3,-0.0684,68.6
ZNF322P1,SID160765581,-2.48,32.6,-1.63,56
ZNF322P1,SID160765582,-2.2,38.1,-2.7,86.6
ZNF322P1,SID160765583,-0.107,79.8,-0.247,95.1
LAX1,SID160742451,-0.435,73.2,0.0669,80.4
LAX1,SID160742452,-0.562,70.7,0.0876,77.2
LAX1,SID160742453,-0.418,73.6,-0.516,94.2
SLC11A2,SID160778228,-0.5,71.9,-0.658,95.6
SLC11A2,SID160778229,0.303,87.9,-0.383,109
SLC11A2,SID160778231,-0.214,77.6,-0.442,97.5
CENPVL3,SID160725121,0.35,88.9,0.0868,97
CENPVL3,SID160725123,-0.0419,81.1,-0.263,97.1
CENPVL3,SID160765001,1.07,103,0.767,94.2
MFSD6,SID160742295,0.0545,83,0.349,84.6
MFSD6,SID160742296,1.9,120,0.996,103
MFSD6,SID160742297,-0.205,77.8,0.686,72.6
S100G,SID160731922,-1.99,42.2,-2.38,88.4
S100G,SID160735720,1.23,106,1.25,85.5
S100G,SID160735732,0.0765,83.4,0.529,81.1
RGMB,SID160763702,-0.284,76.2,0.526,74.2
RGMB,SID160763703,-0.0681,80.5,0.198,85.4
RGMB,SID160763704,-0.173,78.4,-0.214,92.7
KRTAP5-11,SID160725378,-0.0447,81,-0.114,93.3
KRTAP5-11,SID160725379,-0.378,74.4,0.301,76.8
KRTAP5-11,SID160767670,1.02,102,0.908,90
